Among the data in paper PMC10104784 are binding values, retold here.

Sequences of proteins named here, by UniProt entry; tags and fusion partners are left off.
UniProt Q921E6: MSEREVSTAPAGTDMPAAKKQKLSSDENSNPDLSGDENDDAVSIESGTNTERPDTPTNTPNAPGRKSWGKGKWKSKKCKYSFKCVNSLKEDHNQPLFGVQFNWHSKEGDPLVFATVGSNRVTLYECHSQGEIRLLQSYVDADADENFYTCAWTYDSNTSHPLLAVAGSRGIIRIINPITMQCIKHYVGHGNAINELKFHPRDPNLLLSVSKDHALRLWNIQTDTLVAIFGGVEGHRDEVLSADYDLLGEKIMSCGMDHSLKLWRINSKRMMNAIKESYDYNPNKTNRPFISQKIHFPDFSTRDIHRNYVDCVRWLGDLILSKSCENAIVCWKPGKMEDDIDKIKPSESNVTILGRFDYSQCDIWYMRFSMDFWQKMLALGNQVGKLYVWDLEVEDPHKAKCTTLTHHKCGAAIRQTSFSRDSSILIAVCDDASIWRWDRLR
UniProt Q61188: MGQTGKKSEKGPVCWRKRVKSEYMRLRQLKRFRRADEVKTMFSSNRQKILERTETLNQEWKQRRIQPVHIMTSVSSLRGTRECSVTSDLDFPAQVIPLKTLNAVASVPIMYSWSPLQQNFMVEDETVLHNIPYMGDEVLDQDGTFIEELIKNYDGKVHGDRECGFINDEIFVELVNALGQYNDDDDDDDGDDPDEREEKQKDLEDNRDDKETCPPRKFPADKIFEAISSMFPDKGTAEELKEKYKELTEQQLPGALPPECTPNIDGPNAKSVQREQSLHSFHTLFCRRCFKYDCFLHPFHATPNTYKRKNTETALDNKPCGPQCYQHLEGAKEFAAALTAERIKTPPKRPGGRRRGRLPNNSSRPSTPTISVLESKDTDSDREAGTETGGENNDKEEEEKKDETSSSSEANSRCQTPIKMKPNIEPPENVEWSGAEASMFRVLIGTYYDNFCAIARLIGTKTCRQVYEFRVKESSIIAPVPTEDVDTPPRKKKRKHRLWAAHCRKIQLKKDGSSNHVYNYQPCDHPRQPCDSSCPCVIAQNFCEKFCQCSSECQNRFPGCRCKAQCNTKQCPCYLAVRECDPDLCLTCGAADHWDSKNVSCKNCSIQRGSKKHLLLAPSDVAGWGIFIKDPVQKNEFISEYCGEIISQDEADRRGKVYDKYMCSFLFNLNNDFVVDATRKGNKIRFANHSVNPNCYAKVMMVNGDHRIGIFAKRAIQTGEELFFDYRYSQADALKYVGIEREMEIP
UniProt Q80U70: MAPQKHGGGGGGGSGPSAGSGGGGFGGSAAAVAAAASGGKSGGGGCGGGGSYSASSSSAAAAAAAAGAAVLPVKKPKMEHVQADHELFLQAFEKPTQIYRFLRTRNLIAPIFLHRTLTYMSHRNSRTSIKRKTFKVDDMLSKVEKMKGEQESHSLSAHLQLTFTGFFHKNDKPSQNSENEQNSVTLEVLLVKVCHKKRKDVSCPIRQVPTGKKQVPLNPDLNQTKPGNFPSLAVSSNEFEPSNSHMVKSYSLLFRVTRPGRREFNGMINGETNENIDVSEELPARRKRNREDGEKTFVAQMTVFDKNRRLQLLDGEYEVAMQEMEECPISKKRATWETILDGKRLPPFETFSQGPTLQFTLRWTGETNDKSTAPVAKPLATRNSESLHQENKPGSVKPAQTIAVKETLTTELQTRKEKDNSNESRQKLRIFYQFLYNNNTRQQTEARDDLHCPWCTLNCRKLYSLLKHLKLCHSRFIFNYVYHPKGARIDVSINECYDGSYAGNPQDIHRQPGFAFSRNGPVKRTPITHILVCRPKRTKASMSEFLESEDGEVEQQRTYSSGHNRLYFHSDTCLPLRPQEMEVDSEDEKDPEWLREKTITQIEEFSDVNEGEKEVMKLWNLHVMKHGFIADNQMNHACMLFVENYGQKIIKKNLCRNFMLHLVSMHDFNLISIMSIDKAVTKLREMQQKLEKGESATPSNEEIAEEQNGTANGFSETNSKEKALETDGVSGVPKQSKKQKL

No constants are given. Whether binding was seen depends on the method and setting. In cells and extracts the contact can be indirect. Some binding calls cover weakened binding; strength is not graded here.

Assay [1] concerns the target embryonic ectoderm development (EED) (mouse (endogenous in TSCs and ESCs)) (UniProt Q921E6). As to the kind of experiment: co-IP; EED IP (anti-EED, Abcam ab4469; control IgG) from sonicated whole-cell lysates of WT ESCs; 0.5x NLB; Protein G Dynabeads; western blot. On the technique in general: Immunoblotting shows a protein as a band on a membrane.
For assay [2] the target is unchanged. As to the kind of experiment: co-IP; EED IP (anti-EED, Abcam ab4469; control IgG) from sonicated whole-cell lysates of WT TSCs, untreated or treated with EZH2i (Tazemetostat, 10 µM, ~5 weeks); 0.5x NLB (218.5 mM NaCl, 0.5% Triton X-100, 0.05% Tween-20, pH 7.4), overnight in the cold room; Protein G Dynabeads; western blot.

Turning to EZH2 (from UniProt Q61188 1-746), the binding result in assay [1] and in assay [2] was “binds” in each case.

On to SUZ12 (from UniProt Q80U70 1-741), for which the binding entry in assay [1] and in assay [2] was “binds” throughout.

B1: RYBP (protein, UniProt Q8CCI5 1-228)
chain: MTMGDKKSPTRPKRQAKPAADEGFWDCSVCTFRNSAEAFKCSICDVRKGTSTRKPRINSQLVAQQVAQQYATPPPPKKEKKEKVEKPDKEKPEKDKDISPSVTKKNTNKKTKPKSDILKDPPSEANSIQSANATTKTSETNHTSRPRLKNVDRSTAQQLAVTVGNVTVIITDFKEKTRSSSTSSSTVTSSAGSEQQNQSSSGSESTDKGSSRSSTPKGDMSAVNDESF
As for B1, the binding entry in assay [1] and in assay [2] was “no binding” throughout.
